PubChem BioAssay AID1224826 | NIAID – 2016
Aim: 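Genes that change LPS-induced Tnf promoter activity in mouse macrophages when knocked down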 (primary screen). Cell system: RAW264.7 G9 macrophages from mouse bearing reporters for p65 (GFP) and the Tnf promoter (mCherry). Knock-down reagent: siRNA pool against mouse genes, 100 nM. Timing: 16 h of LPS stimulation, after 2 days of siRNA transfection. Conditions: bacterial lipopolysaccharide (Salmonella minnesota R595), 10 ng/ml. Detection: 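Nuclear mCherry signal of the Tnf promoter reporter measured by imaging after background removal, scaled to each plate median and turned into robust z-scores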. Scale: Tnf reporter robust z-score: higher = stronger Tnf promoter reporter signal after LPS. Rule for the call: 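a well counts as active at a score of -1.3 or below (Tlr4 knock-down control median) or above 3 (raised signal); controls and wells holding fewer than 50 cells are excluded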. Calls: active = Tnf reporter clearly lowered or raised; inactive = no clear change in Tnf reporter.
This is one part, drawn at random, of about 17,000 reagents tested. About 1,110 of all reagents (6.6%) were called active. 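Active means lowered or raised reporter signal; replicate intensities are raw and not normalised per plate.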 Not all columns of the deposit are shown. No sequences are given here.

Depletion of Bmx resulted in: Tnf reporter robust z-score 1.56; fewer than 50 cells in well enough cells in well; inactive. After knock-down of Sec14l4, the screen gave Tnf reporter robust z-score 3.8; fewer than 50 cells in well enough cells in well; active. Uts2b scored fewer than 50 cells in well fewer than 50 cells per well; well left out of calls; inactive. Silencing of Mrpl49 resulted in: Tnf reporter robust z-score 0.28; fewer than 50 cells in well enough cells in well; inactive. After knock-down of Pcmtd2, the record shows Tnf reporter robust z-score 0.26; fewer than 50 cells in well enough cells in well; inactive. With knock-down of Defb11, the record shows Tnf reporter robust z-score 0.98; fewer than 50 cells in well enough cells in well; inactive.

For Hck, the values are Tnf reporter robust z-score 0.01; fewer than 50 cells in well enough cells in well; inactive. With knock-down of Stbd1, the record shows Tnf reporter robust z-score 3.62; fewer than 50 cells in well enough cells in well; active. After knock-down of Ribc1 the results were Tnf reporter robust z-score -1.59; fewer than 50 cells in well enough cells in well; active. Atp6v1c1 scored Tnf reporter robust z-score 0.44; fewer than 50 cells in well enough cells in well; inactive. For Gata4, the entry reads Tnf reporter robust z-score 0.13; fewer than 50 cells in well enough cells in well; inactive. Hlx showed Tnf reporter robust z-score 0.27; fewer than 50 cells in well enough cells in well; inactive.

Against Cphx1, the entry reads Tnf reporter robust z-score 0.77; fewer than 50 cells in well enough cells in well; inactive. Against Wdr45 the deposit lists Tnf reporter robust z-score 1.89; fewer than 50 cells in well enough cells in well; inactive.

Records listed so far whose target name starts with S or s (2):
Sec14l4 → Tnf reporter robust z-score: 3.8; fewer than 50 cells in well: enough cells in well; outcome: active
Stbd1 → Tnf reporter robust z-score: 3.62; fewer than 50 cells in well: enough cells in well; outcome: active
